The target of the test is GST-fused VPS26. In words: pull-down; GST fusion proteins on glutathione-conjugated agarose beads incubated with in vitro translated, biotinylated-lysine-labeled SORLA-C; bound probe detected colorimetrically after SDS-PAGE; only the target purified.

These are yes or no findings as the source states them, for the method shown. In cells and extracts the contact can be indirect. Binding can be weak; no strength is given.

B1: SORLA-C (signal peptide a.a. 1-34 joined to the C terminal sequence a.a. 2111-2214 of SORLA) (domain or fragment, UniProt Q92673 1-34; Q92673 2111-2214)
chain: MATRSSRRESRLPFLFTLVALLPPGALCEVWTQRPAILLYDELGSGADASATQAARSTDVAAVVVPILFLILLSLGVGFAILYTKHRRLQSSFTAFANSHYSSRLGSAIFSSGDDLGEDDEDAPMITGFSDDVPMVIA
modifications: biotinylated lysine (Transcend tRNA) incorporated during in vitro translation
As to B1, the binding entry is “binds”.

Values taken from article PMC12186327.
